The other results are listed elsewhere or left out.
B1: il10ra_site1_normal_mot_49468d6c54d8157f7969f91124172a68_0001_af2_000000173_0001_37_51_H_._HHH_b1_02831_0001_0000200008_0000002_0_af2pred_dldesign_0_af2pred (protein)
chain: SSSSEEEVHKVEVGFKIAKESKSKIALENLIQYAKELYEKTKDERVKEILEKAEKELKELESSSS
B2: il10ra_site1_normal_mot_HHH_b2_02262_af2_000000007_0001_40_53_H_._HHH_b2_05506_0001_0000200012_0000002_0 (protein)
chain: SSSSEEERLEKLLEEIEELIKEGDIEEALQVLWELVKLAAELNDEEILQKVLRLLRELLELSSSS
B3: il10ra_site1_normal_mot_HHH_b1_04693_000000238_0001_19_36_H_._HHH_b1_00120_0001_0000500011_0000001_0 (protein)
chain: SSSSQEAYEFARRVIEEVIELERNGDPEEAERLLEQAEEFLRELGNVAALAAIEALLRLLRSSSS
B4: il10ra_site1_normal_mot_8756ee2cf497b5429c717dfc0c0bcfd6_0001_000000186_0001_1_13_H_._HHH_b2_01483_0001_0000200015_0000001_0 (protein)
chain: SSSSTEEAEEVIELIRLVAELHREGNPEEAREVLERAEEIAREINNDVALAQIEYLERLLDSSSS
B5: il10ra_site1_sap_11_mot_ems_3hM_2751_000000089_0001_24_43_H_._HHH_b1_06082_0001_0000100002_0000002_0_0001 (protein)
chain: SSSSSDIEELLREAEELAEEGNPEEAARLLLEALRLIYEAQDEELLRELWEVVRRVAELSSSSSS
B6: il10ra_site1_sap_22_mot_HHH_b1_05672_af2_000000246_0001_1_19_H_._HHH_b1_02677_af2_0001_0000900031_0000001_0_0001 (protein)
chain: SSSSEEERVVELMFEAVRLLANGNPEEAEKVLEEAKELAEELNDEELQRYVEIALHFVRAHSSSS
B7: il10ra_site1_sap_23_mot_HHH_b2_00475_000000107_0001_44_57_H_._HHH_b1_00662_0001_0000800048_0000001_0_0001_af2pred_0001 (protein)
chain: SSSDETKERVEELLEEVEELIRQGNEEEARKVLLEALLVAAKGEDEEAFRLVLKLYRRLERSSSS
B8: il10ra_site1_sap_15_mot_HHH_b1_00999_000000080_0001_41_55_H_._HHH_b2_00528_0001_0000200007_0000001_0_0001_af2pred_0001 (protein)
chain: SSSSSSSDERAVRILLEAAKRIDDEERVRLSLRQAKLLAELANDPELEKLVEEVEEELSSSSSSS
B9: il10ra_site1_sap_14_mot_8756ee2cf497b5429c717dfc0c0bcfd6_0001_000000186_0001_1_13_H_._HHH_b1_08668_af2_0001_0000100005_0000001_0_0001 (protein)
chain: SSSSDAEEEAQELLEEAERLLEEGDRERFARVVQEALRAAFQASDEEIMQALWRLVARAKSSSSS
B10: il10ra_site1_sap_14_mot_HHH_b2_05207_000000229_0001_1_19_H_._HHH_b1_00008_af2_0001_0000200016_0000001_0_0001_af2pred_0001 (protein)
chain: SSSSDEEEEVFKLVAKALILADRLGDEETSRRLFELLAKAHATNDPELFEEAEELAREILGSSSS
B11: il10ra_site1_sap_19_mot_HHH_b1_04704_af2_000000076_0001_43_57_H_._HHH_b1_02547_af2_0001_0000500019_0000002_0_0001 (protein)
chain: SSSSSRERIVELLREAFRLALRGNPEEAKRVLEEAEELAEEAGNPDALRMVEMLLRALENSSSSS
B12: il10ra_site1_normal_mot_HHH_b1_00456_000000263_0001_1_17_H_._HHH_b1_04486_af2_0001_0000400024_0000001_0_af2pred_dldesign_0_af2pred (protein)
chain: SSSSDPEAEFYNAYTTAYSLAKEKKDEETVEELIELRKRWLATRDPSCLERVKAILEKLKSSSSS
B13: il10ra_site1_sap_18_mot_HHH_b2_00816_af2_000000077_0001_1_19_H_._HHH_b1_04432_af2_0001_0000400023_0000001_1_0001 (protein)
chain: SSSSSTQEVARRSAKFLLEAAKQIDDDEYVRLTLRFAKLSAEAVNDEELKEEIEEVIEELSSSSS
B14: il10ra_site1_sap_15_mot_8756ee2cf497b5429c717dfc0c0bcfd6_0001_000000186_0001_1_13_H_._HHH_b2_01574_0001_0000100003_0000001_0_0001 (protein)
chain: SSSSDEEEEELRELLREVKELLERGDPRRAARVAQELLRLIYRLRDEEALQELWRLIAERGSSSS
B15: il10ra_site1_sap_25_mot_HHH_b2_03220_af2_000000223_0001_23_40_H_._HHH_b1_07903_af2_0001_0000500024_0000002_0_0001 (protein)
chain: SSSSSDEEEELEELLEEVERAIKEGDEERALELIQEALRIVFQLGDEEALRRLWRLAKSISSSSS
B16: il10ra_site1_sap_16_mot_HHH_b2_01447_af2_000000258_0001_1_20_H_._HHH_b1_04646_0001_0000200011_0000001_0_0001 (protein)
chain: SSSSSEAHDELYELLERALEARAEGNPEEAEELLEEVLELARQLNDFIFVYSAEQLLKQLRSSSS
B17: il10ra_site1_normal_mot_8756ee2cf497b5429c717dfc0c0bcfd6_0001_000000186_0001_1_13_H_._HHH_b1_04603_af2_0001_0000300020_0000001_1 (protein)
chain: SSSSSEEVYELIREVAKLLRDGDKEEAKELLEEAEELAKELGNDVLLAQLEYLQEQLEQGSSSSS
B18: il10ra_site1_sap_25_mot_HHH_b2_06857_af2_000000179_0001_42_54_H_._HHH_b1_03840_af2_0001_0000100005_0000001_0_0001 (protein)
chain: SSSDERDQVYRLIKEALELMHRGNPEEAKKVLEEAEELAEELNSRVMRKIIEFLLRQIEETSSSS
B19: il10ra_site1_sap_15_mot_HHH_b1_02648_000000074_0001_1_19_H_._HHH_b1_03222_af2_0001_0000100006_0000002_0_0001 (protein)
chain: SSSSDEENEEALELVLEAVRLALRGDPEEARKVLEEALELAEEANNERLARIIEDMLKALHSSSS
B20: il10ra_site1_sap_7_mot_HHH_b2_02690_000000247_0001_1_16_H_._HHH_b2_04358_0001_0000700065_0000001_0_0001 (protein)
chain: SSSDSAREMYELSRRIAELIAQGDKEEAEKLLEELEELAEEENDPIIRFLVELLRRMIENISSSS
B21: il10ra_site1_normal_mot_HHH_b1_02464_000000069_0001_1_19_H_._HHH_b2_06057_0001_0000100006_0000001_0 (protein)
chain: SSSSDVEERVEELEEEAERAIERDDDELLSEILLELARLAFESGDERIDELAIELARLLKGSSSS
B22: il10ra_site1_normal_mot_HHH_b2_03220_af2_000000223_0001_23_40_H_._HHH_b1_07685_af2_0001_0000500052_0000001_0 (protein)
chain: SSSSTEEVWELLREALELLANGNPEEAQEVAEEALRIAEEAGSRALRHNVRFLLRAIELRSSSSS
B23: il10ra_site1_normal_mot_HHH_b1_00992_000000182_0001_23_40_H_._HHH_b1_04461_0001_0000600029_0000001_0_af2pred_0001 (protein)
chain: SSSSSSKRLELLLRLAKWLLEQGNPEVAREILRAAIELAEREGDPELLEQLEELLEEIENSSSSS
B24: il10ra_site1_normal_mot_HHH_b2_07569_000000265_0001_38_56_H_._HHH_b2_01469_af2_0001_0000300026_0000001_0 (protein)
chain: SSSSDEEEVKEKVEELLEEAKRISDPRERARALQEATHLAFELQDEELVQEVWKVAKELFSSSSS
B25: il10ra_site1_sap_7_mot_HHH_b2_07748_af2_000000237_0001_1_20_H_._HHH_b1_00585_af2_0001_0000100004_0000001_0_0001 (protein)
chain: SSSSDTLEHSVKFAERAVEIAEKQGDEERARFILRELLKHLERARNEELFEEVRRLLEELESSSS
B26: il10ra_site1_normal_mot_HHH_b2_03220_af2_000000223_0001_23_40_H_._HHH_b2_04284_0001_0000200013_0000001_0_af2pred_0001 (protein)
chain: SSSSSELREAFELLRKAIELLQKGNEEEAREVLERVKEIAEEANDPLLKRIAEAIERAVNSSSSS
B27: il10ra_site1_normal_mot_HHH_b1_05357_000000034_0001_23_39_H_._HHH_b2_06846_af2_0001_0000200002_0000001_0_af2pred_0001 (protein)
chain: SSSSSSSEEEVEELLEEAEKIEDRHEVAYLLVRAFALAYRNNDPELRELVEKVAKELLSSSSSSS
B28: il10ra_site1_sap_28_mot_HHH_b2_01776_000000118_0001_38_52_H_._HHH_b1_02180_af2_0001_0000400031_0000001_0_0001 (protein)
chain: SSSSSELAHIAVEVWELQKEGDEERIEELLERLEELLEKTGDPYVETVLTFAESVLRALRSSSSS
B29: il10ra_site1_normal_mot_HHH_b2_00612_000000251_0001_1_14_H_._HHH_b2_07853_0001_0000100004_0000001_0 (protein)
chain: SSSSSSVEIIKKLAEEILELVEEGNEEEAEKLTEEAKEIAEQLGDQLAAETVEYLLRLQLSSSSS
B30: il10ra_site1_normal_mot_HHH_b2_00984_000000042_0001_1_20_H_._ems_3hC_921_0001_0000100002_0000001_0 (protein)
chain: SSPEEALQLLFEATQLALENSDQELLQAVWRLIHKLVEARENNDEEKVEEVFELAREILEELQSS
B31: il10ra_site1_normal_mot_HHH_b1_05357_000000034_0001_23_39_H_._HHH_b2_06120_0001_0000300014_0000001_0 (protein)
chain: SSSSSVEEEFRRLEEELEEALRNGDRELAAHIVIRIYALVNQNNNEELEQRAKELSRLVANSSSS
B32: il10ra_site1_sap_15_mot_HHH_b1_06731_af2_000000295_0001_1_19_H_._HHH_b2_01214_0001_0000300016_0000001_0_0001 (protein)
chain: SSSSSDEEREVRQKVEALLWFARYVDPRAREIMLKRAREIAEQNNDEELRELVEEVAEELSSSSS
B33: il10ra_site1_sap_22_mot_HHH_b2_04681_000000155_0001_43_57_H_._HHH_b2_07873_af2_0001_0000100003_0000002_0_0001_af2pred_0001 (protein)
chain: SSSSSDEEVRERVEELLEELEHVSPEEQTRLLREAARLAAEAEDPELKELVLEALEKVLSSSSSS
B34: il10ra_site1_sap_14_mot_HHH_b1_06789_af2_000000041_0001_1_20_H_._HHH_b2_04588_af2_0001_0000300012_0000001_0_0001 (protein)
chain: SSSSSAEEAFRLAEEVIKRLREITDPEEIEELAEEVRRELEELGNPEAARQIEHLARLERSSSSS
B35: il10ra_site1_sap_16_mot_HHH_b2_07144_000000289_0001_1_18_H_._HHH_b2_06430_0001_0000300020_0000002_0_0001_af2pred_0001 (protein)
chain: SSSSSDVEEEAKRLYRELRELIEEGDEEELRRVEKELLELALRHRDREAAKALLRIYRLHSSSSS
B36: il10ra_site1_sap_19_mot_HHH_b2_03284_af2_000000155_0001_1_21_H_._HHH_b1_04583_0001_0000100015_0000001_0_0001_af2pred_0001 (protein)
chain: SSSSDKELAERAVRLLLRAAREISDEEVVKRSFKFARWVAEEANDPELERLVEEVFEELQSSSSS
B37: il10ra_site1_sap_17_mot_HHH_b2_00988_000000064_0001_1_19_H_._HHH_b2_03322_af2_0001_0000700023_0000001_1_0001 (protein)
chain: SSSSDKEEELRELLEELERLAEEGDLERFAKVAKRVIRLAFQLGDEEILQLLWELLKKIASSSSS

Each binder was assayed against il10ra, Q13651 (assay: yeast display titration).

Apparent Kd, inactive:
B1 no binding seen
B2 no binding seen
B3 no binding seen
B4 no binding seen
B5 no binding seen
B6 no binding seen
B7 no binding seen
B8 no binding seen
B9 no binding seen
B10 no binding seen
B11 no binding seen
B12 no binding seen
B13 no binding seen
B14 no binding seen
B15 > 380 nM
B16 no binding seen
B17 no binding seen
B18 no binding seen
B19 no binding seen
B20 no binding seen
B21 no binding seen
B22 no binding seen
B23 no binding seen
B24 no binding seen
B25 no binding seen
B26 no binding seen
B27 no binding seen
B28 no binding seen
B29 no binding seen
B30 no binding seen
B31 no binding seen
B32 no binding seen
B33 no binding seen
B34 no binding seen
B35 no binding seen
B36 no binding seen
B37 no binding seen

Retrieved one by one from the list above (2):
Apparent Kd, inactive:
B4 no binding seen
B12 no binding seen

— PMC10163288
